Counter-ions that a name gives are not always drawn. The list shows a part of the results. The calls rarely recur for the same compound in another form.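 Kinases were expressed as nanoluciferase fusions in K562 cells and luminescence was read every 4 h between 2 and 18 h as percent of control, DMSO set to 100% and a positive control to 0%. A time point counts as decreased when the signal drops significantly (2 sigma). The hit call is the authors' own, does not follow from the count of time points alone, and its rule is not shown.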
Key:
Test in all cases: kinase-Nluc reporter destabilization hit call (1 = scored as downregulated) (binary); higher = compound decreases kinase abundance
Details in all cases: K562; 2-18 h
IRAK3 = IRAK3 (UniProt Q9Y616)
JAK1 = JAK1 (UniProt P23458)
LCK = LCK (UniProt P06239)
LIMK1 = LIMK1 (UniProt P53667)
LIMK2 = LIMK2 (UniProt P53671)
LMTK2 = LMTK2 (UniProt Q8IWU2)
LYN = LYN (UniProt P07948)
MAP2K1 = MAP2K1 (UniProt Q02750)
MAP2K2 = MAP2K2 (UniProt P36507)
MAP4K2 = MAP4K2 (UniProt Q12851)

Protein sequences, listed by entry. Tags and fused reporters are not part of them. Lines headed by an entry give the natural chain unless they say otherwise; changes in a name come on top.
UniProt Q9Y616: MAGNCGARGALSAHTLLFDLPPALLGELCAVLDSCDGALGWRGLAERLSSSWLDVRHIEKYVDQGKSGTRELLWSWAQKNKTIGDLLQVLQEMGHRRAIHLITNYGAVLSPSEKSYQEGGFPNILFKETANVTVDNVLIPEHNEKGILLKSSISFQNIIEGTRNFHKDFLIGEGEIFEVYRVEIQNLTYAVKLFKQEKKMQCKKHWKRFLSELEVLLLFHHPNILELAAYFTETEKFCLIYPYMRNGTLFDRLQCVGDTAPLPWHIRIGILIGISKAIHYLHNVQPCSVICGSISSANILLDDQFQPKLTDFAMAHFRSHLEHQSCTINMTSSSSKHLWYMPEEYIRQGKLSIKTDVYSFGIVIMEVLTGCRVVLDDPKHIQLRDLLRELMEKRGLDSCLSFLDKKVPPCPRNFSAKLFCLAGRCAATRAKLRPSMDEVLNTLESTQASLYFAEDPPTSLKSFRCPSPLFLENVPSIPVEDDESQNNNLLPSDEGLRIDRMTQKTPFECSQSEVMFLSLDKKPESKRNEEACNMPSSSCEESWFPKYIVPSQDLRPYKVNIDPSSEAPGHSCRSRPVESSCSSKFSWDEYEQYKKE
UniProt P23458: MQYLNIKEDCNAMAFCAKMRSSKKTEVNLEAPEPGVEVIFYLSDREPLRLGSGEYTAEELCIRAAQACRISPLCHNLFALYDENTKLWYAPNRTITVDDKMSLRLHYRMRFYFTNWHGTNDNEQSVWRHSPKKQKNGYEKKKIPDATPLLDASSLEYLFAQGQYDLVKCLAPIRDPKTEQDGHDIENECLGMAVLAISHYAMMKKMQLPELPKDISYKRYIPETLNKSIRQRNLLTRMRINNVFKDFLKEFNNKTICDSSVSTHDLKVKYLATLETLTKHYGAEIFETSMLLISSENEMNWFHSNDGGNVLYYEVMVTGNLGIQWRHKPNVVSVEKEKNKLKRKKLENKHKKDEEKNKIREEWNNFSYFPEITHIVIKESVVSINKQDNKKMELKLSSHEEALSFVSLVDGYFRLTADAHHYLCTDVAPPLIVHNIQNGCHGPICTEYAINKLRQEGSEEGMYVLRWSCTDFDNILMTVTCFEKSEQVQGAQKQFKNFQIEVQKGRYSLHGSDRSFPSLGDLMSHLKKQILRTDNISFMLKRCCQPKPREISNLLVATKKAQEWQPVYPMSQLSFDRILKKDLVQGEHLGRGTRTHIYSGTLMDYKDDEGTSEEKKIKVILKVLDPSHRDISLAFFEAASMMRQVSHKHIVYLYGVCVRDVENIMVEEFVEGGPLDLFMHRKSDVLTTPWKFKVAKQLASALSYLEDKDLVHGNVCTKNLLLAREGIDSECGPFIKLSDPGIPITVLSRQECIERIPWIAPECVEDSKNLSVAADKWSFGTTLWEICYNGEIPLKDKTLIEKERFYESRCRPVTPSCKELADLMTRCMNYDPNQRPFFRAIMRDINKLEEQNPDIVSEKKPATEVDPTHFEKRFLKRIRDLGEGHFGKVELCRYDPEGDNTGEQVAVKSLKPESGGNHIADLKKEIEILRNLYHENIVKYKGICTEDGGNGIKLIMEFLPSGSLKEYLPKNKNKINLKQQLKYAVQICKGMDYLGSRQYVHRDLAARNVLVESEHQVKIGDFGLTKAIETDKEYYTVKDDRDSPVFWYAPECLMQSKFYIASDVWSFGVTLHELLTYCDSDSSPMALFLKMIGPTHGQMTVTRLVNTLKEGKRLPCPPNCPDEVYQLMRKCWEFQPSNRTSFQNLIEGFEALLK
UniProt P06239: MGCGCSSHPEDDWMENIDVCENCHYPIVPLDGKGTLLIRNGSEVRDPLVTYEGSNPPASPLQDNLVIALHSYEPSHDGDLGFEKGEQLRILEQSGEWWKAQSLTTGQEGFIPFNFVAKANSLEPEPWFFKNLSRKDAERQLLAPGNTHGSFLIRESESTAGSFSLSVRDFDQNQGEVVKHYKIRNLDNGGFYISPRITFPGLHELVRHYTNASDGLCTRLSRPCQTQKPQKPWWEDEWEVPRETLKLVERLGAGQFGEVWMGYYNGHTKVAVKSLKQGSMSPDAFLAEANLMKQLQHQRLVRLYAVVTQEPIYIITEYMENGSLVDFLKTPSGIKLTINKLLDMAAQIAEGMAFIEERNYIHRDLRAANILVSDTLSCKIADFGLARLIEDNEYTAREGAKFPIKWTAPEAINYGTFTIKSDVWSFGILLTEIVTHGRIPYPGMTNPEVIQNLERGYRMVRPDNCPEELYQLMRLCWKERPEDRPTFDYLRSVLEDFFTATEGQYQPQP
UniProt P53667: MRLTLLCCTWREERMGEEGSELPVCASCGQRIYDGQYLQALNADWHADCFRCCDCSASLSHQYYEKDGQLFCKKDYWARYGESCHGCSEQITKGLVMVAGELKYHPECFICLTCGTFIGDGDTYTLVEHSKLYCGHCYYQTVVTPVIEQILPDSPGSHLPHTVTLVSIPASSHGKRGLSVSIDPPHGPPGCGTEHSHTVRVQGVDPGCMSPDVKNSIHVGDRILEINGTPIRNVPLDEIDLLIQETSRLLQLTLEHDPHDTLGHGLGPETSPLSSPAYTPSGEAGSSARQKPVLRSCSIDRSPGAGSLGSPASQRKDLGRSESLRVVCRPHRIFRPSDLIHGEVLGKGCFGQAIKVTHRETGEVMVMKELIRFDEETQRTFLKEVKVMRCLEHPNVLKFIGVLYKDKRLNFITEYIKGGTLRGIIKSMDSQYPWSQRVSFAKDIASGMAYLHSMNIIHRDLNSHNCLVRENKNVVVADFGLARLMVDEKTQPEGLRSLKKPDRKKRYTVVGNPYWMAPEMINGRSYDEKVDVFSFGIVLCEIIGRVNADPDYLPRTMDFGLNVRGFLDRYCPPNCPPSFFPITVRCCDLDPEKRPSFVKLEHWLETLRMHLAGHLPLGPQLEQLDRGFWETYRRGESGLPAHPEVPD
UniProt P53671: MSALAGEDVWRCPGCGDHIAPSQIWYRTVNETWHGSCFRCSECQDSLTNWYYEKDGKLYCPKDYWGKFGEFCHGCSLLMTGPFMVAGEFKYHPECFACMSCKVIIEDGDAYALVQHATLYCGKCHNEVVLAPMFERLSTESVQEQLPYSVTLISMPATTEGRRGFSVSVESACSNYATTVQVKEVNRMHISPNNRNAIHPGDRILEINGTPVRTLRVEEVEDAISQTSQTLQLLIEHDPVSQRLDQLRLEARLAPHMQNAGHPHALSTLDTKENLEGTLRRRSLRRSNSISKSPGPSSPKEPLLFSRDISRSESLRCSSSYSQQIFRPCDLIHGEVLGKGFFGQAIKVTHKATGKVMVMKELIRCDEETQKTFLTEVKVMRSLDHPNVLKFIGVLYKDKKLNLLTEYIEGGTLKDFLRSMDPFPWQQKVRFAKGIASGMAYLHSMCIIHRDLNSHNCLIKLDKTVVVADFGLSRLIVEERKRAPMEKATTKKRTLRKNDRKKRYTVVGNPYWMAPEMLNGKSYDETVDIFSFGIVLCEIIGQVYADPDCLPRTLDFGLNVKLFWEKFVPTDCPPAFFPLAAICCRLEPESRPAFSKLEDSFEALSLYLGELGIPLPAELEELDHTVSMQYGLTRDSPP
UniProt Q8IWU2: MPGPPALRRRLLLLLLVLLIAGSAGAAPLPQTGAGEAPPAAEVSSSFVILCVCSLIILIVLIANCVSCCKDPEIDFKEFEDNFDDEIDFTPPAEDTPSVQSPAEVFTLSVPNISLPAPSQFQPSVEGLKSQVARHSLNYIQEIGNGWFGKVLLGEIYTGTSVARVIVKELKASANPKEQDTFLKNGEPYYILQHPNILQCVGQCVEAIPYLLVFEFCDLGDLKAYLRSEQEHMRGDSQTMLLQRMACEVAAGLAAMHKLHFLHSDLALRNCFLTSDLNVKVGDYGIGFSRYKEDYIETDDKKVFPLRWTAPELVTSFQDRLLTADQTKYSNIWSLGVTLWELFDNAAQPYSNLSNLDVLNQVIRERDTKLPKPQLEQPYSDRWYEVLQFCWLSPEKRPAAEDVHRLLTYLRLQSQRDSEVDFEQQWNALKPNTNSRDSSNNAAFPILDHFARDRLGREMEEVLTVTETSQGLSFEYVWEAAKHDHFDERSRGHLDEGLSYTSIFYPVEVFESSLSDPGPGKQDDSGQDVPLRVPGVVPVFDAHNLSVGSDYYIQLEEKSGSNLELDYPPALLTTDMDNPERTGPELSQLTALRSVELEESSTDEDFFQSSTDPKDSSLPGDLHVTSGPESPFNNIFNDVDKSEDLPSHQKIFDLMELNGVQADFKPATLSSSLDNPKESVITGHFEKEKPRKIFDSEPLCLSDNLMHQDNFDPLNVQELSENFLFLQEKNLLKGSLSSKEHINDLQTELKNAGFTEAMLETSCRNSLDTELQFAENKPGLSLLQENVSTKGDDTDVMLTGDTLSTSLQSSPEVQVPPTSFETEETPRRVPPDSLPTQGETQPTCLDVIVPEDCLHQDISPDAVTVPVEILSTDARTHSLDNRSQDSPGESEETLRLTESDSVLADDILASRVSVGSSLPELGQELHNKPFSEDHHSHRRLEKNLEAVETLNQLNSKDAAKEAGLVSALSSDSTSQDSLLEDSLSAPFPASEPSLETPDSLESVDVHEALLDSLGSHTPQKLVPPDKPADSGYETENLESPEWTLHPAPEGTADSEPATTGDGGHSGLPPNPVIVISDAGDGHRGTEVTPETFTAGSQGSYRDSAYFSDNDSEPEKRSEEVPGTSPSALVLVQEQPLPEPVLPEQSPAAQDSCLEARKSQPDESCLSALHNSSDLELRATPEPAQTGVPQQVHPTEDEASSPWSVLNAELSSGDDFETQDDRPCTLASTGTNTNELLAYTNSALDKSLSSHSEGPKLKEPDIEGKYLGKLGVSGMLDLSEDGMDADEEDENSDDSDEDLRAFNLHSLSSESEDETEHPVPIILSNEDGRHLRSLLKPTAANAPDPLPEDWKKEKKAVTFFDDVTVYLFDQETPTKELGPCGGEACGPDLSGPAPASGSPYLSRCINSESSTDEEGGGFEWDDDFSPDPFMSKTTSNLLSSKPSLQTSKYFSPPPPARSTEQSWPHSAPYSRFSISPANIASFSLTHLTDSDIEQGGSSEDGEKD
UniProt P07948: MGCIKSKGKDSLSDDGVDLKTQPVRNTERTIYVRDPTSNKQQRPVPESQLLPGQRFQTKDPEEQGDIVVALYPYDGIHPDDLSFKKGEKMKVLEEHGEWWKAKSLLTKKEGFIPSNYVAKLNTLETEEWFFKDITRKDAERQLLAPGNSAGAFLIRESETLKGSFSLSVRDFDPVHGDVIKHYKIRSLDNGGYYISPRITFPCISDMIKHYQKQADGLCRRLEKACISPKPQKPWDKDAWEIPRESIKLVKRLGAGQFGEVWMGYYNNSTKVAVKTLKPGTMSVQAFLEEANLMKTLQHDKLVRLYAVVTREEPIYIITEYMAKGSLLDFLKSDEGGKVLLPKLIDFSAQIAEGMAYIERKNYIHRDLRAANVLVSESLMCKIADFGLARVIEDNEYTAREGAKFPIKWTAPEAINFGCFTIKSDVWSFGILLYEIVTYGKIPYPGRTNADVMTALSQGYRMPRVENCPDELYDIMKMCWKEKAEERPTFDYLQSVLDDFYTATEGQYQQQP
UniProt Q12851: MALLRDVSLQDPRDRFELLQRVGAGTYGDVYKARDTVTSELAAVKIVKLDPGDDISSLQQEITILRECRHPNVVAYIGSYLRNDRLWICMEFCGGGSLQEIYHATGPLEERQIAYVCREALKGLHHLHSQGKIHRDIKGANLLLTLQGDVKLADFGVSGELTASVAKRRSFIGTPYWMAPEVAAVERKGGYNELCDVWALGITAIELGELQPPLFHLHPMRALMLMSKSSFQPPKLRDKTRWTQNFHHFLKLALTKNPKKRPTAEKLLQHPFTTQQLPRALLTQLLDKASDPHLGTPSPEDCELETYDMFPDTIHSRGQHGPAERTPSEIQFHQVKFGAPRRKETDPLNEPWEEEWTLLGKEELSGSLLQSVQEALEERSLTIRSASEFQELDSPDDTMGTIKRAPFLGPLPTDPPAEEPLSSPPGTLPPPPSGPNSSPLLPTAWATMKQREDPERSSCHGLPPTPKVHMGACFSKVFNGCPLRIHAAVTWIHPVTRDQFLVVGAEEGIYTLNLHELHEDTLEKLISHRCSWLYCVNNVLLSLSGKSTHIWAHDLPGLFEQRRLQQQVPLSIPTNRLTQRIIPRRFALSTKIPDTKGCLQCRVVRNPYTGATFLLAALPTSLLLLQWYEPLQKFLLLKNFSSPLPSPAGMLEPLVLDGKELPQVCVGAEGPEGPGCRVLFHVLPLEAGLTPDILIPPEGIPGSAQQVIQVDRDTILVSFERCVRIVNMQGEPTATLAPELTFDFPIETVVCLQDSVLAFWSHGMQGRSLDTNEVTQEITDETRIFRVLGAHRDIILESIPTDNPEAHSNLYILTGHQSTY

Measured: kinase-Nluc reporter destabilization hit call

O=C(Nc1ccc(F)cc1F)C(NC(=S)Nc1cc(C(F)(F)F)cc(C(F)(F)F)c1)c1ccccc1 (racemic) (2.5 µM)
inactive: IRAK3 = 0 | JAK1 = 0 | LCK 0 | LIMK1 = 0 | LIMK2 = 0 | LMTK2 = 0 | LYN 0 | MAP2K1 = 0 | MAP2K2 = 0 | MAP4K2 = 0

CCCCC(=O)OCC(=O)[C@]1(O)Cc2c(O)c3c(c(O)c2[C@@H](O[C@H]2C[C@H](NC(=O)C(F)(F)F)[C@H](O)[C@H](C)O2)C1)C(=O)c1c(OC)cccc1C3=O [Valrubicin] (10 µM)
inactive: IRAK3 = 0 | JAK1 = 0 | LCK 0 | LIMK1 = 0 | LIMK2 = 0 | LMTK2 = 0 | LYN 0 | MAP2K1 = 0 | MAP2K2 = 0 | MAP4K2 = 0

CCOc1cc(=O)[nH]cc1-c1ccc(CC(=O)Nc2cc(C(C)(C)C(F)(F)F)on2)c(F)c1 (10 µM)
inactive: IRAK3 = 0 | JAK1 = 0 | LCK 0 | LIMK1 = 0 | LIMK2 = 0 | LMTK2 = 0 | LYN 0 | MAP2K1 = 0 | MAP2K2 = 0 | MAP4K2 = 0

O=C(NCc1ccn[nH]1)c1cc([C@@H]2CCNC[C@H]2COc2ccc3c(c2)OCO3)ccc1F [GRK2-IN-1 (hydrochloride)] (10 µM)
inactive: IRAK3 = 0 | JAK1 = 0 | LCK 0 | LIMK1 = 0 | LIMK2 = 0 | LMTK2 = 0 | LYN 0 | MAP2K1 = 0 | MAP2K2 = 0 | MAP4K2 = 0

COc1cc2ncnc(Nc3cc(Br)c(O)c(Br)c3)c2cc1OC (2.5 µM)
inactive: IRAK3 = 0 | JAK1 = 0 | LCK 0 | LIMK1 = 0 | LIMK2 = 0 | LMTK2 = 0 | LYN 0 | MAP2K1 = 0 | MAP2K2 = 0 | MAP4K2 = 0

CC(=O)O[C@@H]1[C@@H](OC(C)=O)[C@@H](O)[C@H](Oc2c(-c3ccc(O)cc3)oc3cc(O)cc(O)c3c2=O)O[C@H]1C (10 µM)
inactive: IRAK3 = 0 | JAK1 = 0 | LCK 0 | LIMK1 = 0 | LIMK2 = 0 | LMTK2 = 0 | LYN 0 | MAP2K1 = 0 | MAP2K2 = 0 | MAP4K2 = 0

NC(=O)c1cnc(N[C@@H]2CCCC[C@@H]2N)nc1Nc1cccc(-n2nccn2)c1 (2.5 µM)
inactive: IRAK3 = 0 | JAK1 = 0 | LCK 0 | LIMK1 = 0 | LIMK2 = 0 | LMTK2 = 0 | LYN 0 | MAP2K1 = 0 | MAP2K2 = 0 | MAP4K2 = 0

O=C(C#Cc1ccccc1)c1cccc([N+](=O)[O-])c1 (10 µM)
inactive: IRAK3 = 0 | JAK1 = 0 | LCK 0 | LIMK1 = 0 | LIMK2 = 0 | LMTK2 = 0 | LYN 0 | MAP2K1 = 0 | MAP2K2 = 0 | MAP4K2 = 0

O=C1C=CC2=C3c4cc(O)c(O)cc4CC3(O)COC2=C1O (configuration not stated) [Hematein] (10 µM)
inactive: IRAK3 = 0 | JAK1 = 0 | LCK 0 | LIMK1 = 0 | LIMK2 = 0 | LMTK2 = 0 | LYN 0 | MAP2K1 = 0 | MAP2K2 = 0 | MAP4K2 = 0

CC(C)=CCC[C@](C)(O[C@@H]1O[C@H](CO[C@@H]2O[C@H](CO)[C@@H](O)[C@H](O)[C@H]2O)[C@@H](O)[C@H](O)[C@H]1O)[C@H]1CC[C@]2(C)[C@@H]1[C@H](O)C[C@@H]1[C@@]3(C)CC[C@H](O[C@@H]4O[C@H](CO)[C@@H](O)[C@H](O)[C@H]4O[C@@H]4O[C@H](CO)[C@@H](O)[C@H](O)[C@H]4O)C(C)(C)[C@@H]3CC[C@]12C [Ginsenoside Rb1] (10 µM)
inactive: IRAK3 = 0 | JAK1 = 0 | LCK 0 | LIMK1 = 0 | LIMK2 = 0 | LMTK2 = 0 | LYN 0 | MAP2K1 = 0 | MAP2K2 = 0 | MAP4K2 = 0

Cc1ccc(C2CC(=O)NC(SCC(=O)Nc3nccs3)=C2C#N)cc1 (configuration not stated) [Necrostatin-34] (10 µM)
inactive: IRAK3 = 0 | JAK1 = 0 | LCK 0 | LIMK1 = 0 | LIMK2 = 0 | LMTK2 = 0 | LYN 0 | MAP2K1 = 0 | MAP2K2 = 0 | MAP4K2 = 0

Cn1cnc2c(F)c(Nc3ccc(Br)cc3F)c(C(=O)NOCCO)cc21 [Binimetinib] (10 µM)
inactive: IRAK3 = 0 | JAK1 = 0 | LCK 0 | LIMK1 = 0 | LIMK2 = 0 | LMTK2 = 0 | LYN 0 | MAP2K1 = 0 | MAP2K2 = 0 | MAP4K2 = 0

Nc1nccc(Oc2ccc3c(C(=O)Nc4cccc(C(F)(F)F)c4)cccc3c2)n1 (10 µM)
inactive: IRAK3 = 0 | JAK1 = 0 | LCK 0 | LIMK1 = 0 | LIMK2 = 0 | LMTK2 = 0 | LYN 0 | MAP2K1 = 0 | MAP2K2 = 0 | MAP4K2 = 0

COc1cc(Nc2ccnc3ccc(Br)cc23)cc(OC)c1OC (2.5 µM)
inactive: IRAK3 = 0 | JAK1 = 0 | LCK 0 | LIMK1 = 0 | LIMK2 = 0 | LMTK2 = 0 | LYN 0 | MAP2K1 = 0 | MAP2K2 = 0 | MAP4K2 = 0

N=C(NC(=N)N1CCCC1)Nc1ccc(OC(F)(F)F)cc1 (10 µM)
inactive: IRAK3 = 0 | JAK1 = 0 | LCK 0 | LIMK1 = 0 | LIMK2 = 0 | LMTK2 = 0 | LYN 0 | MAP2K1 = 0 | MAP2K2 = 0 | MAP4K2 = 0

C[C@@H]1COC(Nc2ccc3ncnc(Nc4ccc(OCc5nccs5)c(Cl)c4)c3c2)=N1 [Varlitinib] (10 µM)
inactive: IRAK3 = 0 | LCK 0 | LIMK1 = 0 | LIMK2 = 0 | LMTK2 = 0 | LYN 0 | MAP2K1 = 0 | MAP2K2 = 0 | MAP4K2 = 0

CC(ONC(=O)c1cc(C(F)(F)F)cc(C(F)(F)F)c1)C(=O)Nc1ccc(Cl)cc1 (configuration not stated) (2.5 µM)
inactive: IRAK3 = 0 | JAK1 = 0 | LCK 0 | LIMK1 = 0 | LIMK2 = 0 | LMTK2 = 0 | LYN 0 | MAP2K1 = 0 | MAP2K2 = 0 | MAP4K2 = 0

CN1C(=O)N[C@@H](Cc2c[nH]c3c(Cl)cccc23)C1=O [Necrostatin 2 (S enantiomer)] (10 µM)
inactive: IRAK3 = 0 | JAK1 = 0 | LCK 0 | LIMK1 = 0 | LIMK2 = 0 | LMTK2 = 0 | LYN 0 | MAP2K1 = 0 | MAP2K2 = 0 | MAP4K2 = 0

N#C/C(=C/c1ccc(O)c(O)c1)C(=O)N1CCc2ccccc21 [Tyrphostin AG 528] (10 µM)
inactive: IRAK3 = 0 | JAK1 = 0 | LCK 0 | LIMK1 = 0 | LIMK2 = 0 | LMTK2 = 0 | LYN 0 | MAP2K1 = 0 | MAP2K2 = 0 | MAP4K2 = 0

O=C(NC[C@H](O)CO)c1ccncc1Nc1ccc(I)cc1F [Pimasertib] (10 µM)
inactive: IRAK3 = 0 | JAK1 = 0 | LCK 0 | LIMK1 = 0 | LIMK2 = 0 | LMTK2 = 0 | LYN 0 | MAP2K2 = 0 | MAP4K2 = 0

CC(C)(Oc1ccc(Cl)cc1)C(=O)Nc1ccc(OCc2ccc(C#N)cc2)cc1 [AMPK activator 4] (10 µM)
inactive: IRAK3 = 0 | JAK1 = 0 | LCK 0 | LIMK1 = 0 | LIMK2 = 0 | LMTK2 = 0 | LYN 0 | MAP2K1 = 0 | MAP2K2 = 0 | MAP4K2 = 0

CC(=O)Nc1nc(C)c(-c2cc(C)c3c(c2)CN([C@@H](C)C2CC2)C3=O)s1 (10 µM)
inactive: IRAK3 = 0 | JAK1 = 0 | LCK 0 | LIMK1 = 0 | LIMK2 = 0 | LMTK2 = 0 | LYN 0 | MAP2K1 = 0 | MAP2K2 = 0 | MAP4K2 = 0

NCCNS(=O)(=O)c1ccc(Cl)c2ccncc12 [CKI-7 (free base)] (10 µM)
inactive: IRAK3 = 0 | JAK1 = 0 | LCK 0 | LIMK1 = 0 | LIMK2 = 0 | LMTK2 = 0 | LYN 0 | MAP2K1 = 0 | MAP2K2 = 0 | MAP4K2 = 0

Cc1ncsc1-c1ccc(CNC(=O)[C@@H]2C[C@@H](O)CN2C(=O)[C@@H](NC(=O)COCCOc2ccc(-c3cc(Nc4ccc(OC(F)(F)F)cc4)ncn3)cc2)C(C)(C)C)cc1 (2.5 µM)
inactive: IRAK3 = 0 | JAK1 = 0 | LCK 0 | LIMK1 = 0 | LIMK2 = 0 | LMTK2 = 0 | LYN 0 | MAP2K1 = 0 | MAP2K2 = 0 | MAP4K2 = 0

CC(C)c1cc2c(c(O)c1O)[C@@]13CCCC(C)(C)[C@@H]1C[C@@H]2OC3=O [Carnosol] (2.5 µM)
inactive: IRAK3 = 0 | JAK1 = 0 | LCK 0 | LIMK1 = 0 | LIMK2 = 0 | LMTK2 = 0 | LYN 0 | MAP2K1 = 0 | MAP2K2 = 0 | MAP4K2 = 0

COc1ccc2cc1Oc1ccc(cc1)C[C@H]1c3cc(c(OC)cc3CCN1C)Oc1c(O)c(OC)cc3c1[C@H](C2)N(C)CC3 [Fangchinoline] (2.5 µM)
inactive: IRAK3 = 0 | JAK1 = 0 | LCK 0 | LIMK2 = 0 | LMTK2 = 0 | LYN 0 | MAP2K1 = 0 | MAP2K2 = 0 | MAP4K2 = 0

O=C(O)c1c[nH]c2cc(Cl)c(-c3ccc(C4(O)CCC4)cc3)cc12 (10 µM)
inactive: IRAK3 = 0 | JAK1 = 0 | LCK 0 | LIMK1 = 0 | LIMK2 = 0 | LMTK2 = 0 | LYN 0 | MAP2K1 = 0 | MAP2K2 = 0 | MAP4K2 = 0

COc1ccc(Br)c(C=O)c1O [6-Bromo-2-hydroxy-3-methoxybenzaldehyde] (10 µM)
inactive: IRAK3 = 0 | JAK1 = 0 | LCK 0 | LIMK1 = 0 | LIMK2 = 0 | LMTK2 = 0 | LYN 0 | MAP2K1 = 0 | MAP2K2 = 0 | MAP4K2 = 0

CC1(C)CN(C(=O)c2ccc(-c3cccc4nc(NC(=O)C5CC5)nn34)cc2)C1 [Solcitinib] (10 µM)
inactive: IRAK3 = 0 | JAK1 = 0 | LCK 0 | LIMK1 = 0 | LIMK2 = 0 | LMTK2 = 0 | LYN 0 | MAP2K1 = 0 | MAP2K2 = 0 | MAP4K2 = 0

N#Cc1cnc(Nc2cc(NC[C@H]3CNCCO3)c(C(F)(F)F)cn2)cn1 (10 µM)
inactive: IRAK3 = 0 | JAK1 = 0 | LCK 0 | LIMK1 = 0 | LIMK2 = 0 | LMTK2 = 0 | LYN 0 | MAP2K1 = 0 | MAP2K2 = 0 | MAP4K2 = 0

COc1cc2nccc(Nc3cccc(Oc4ccccc4)c3)c2cc1OC (2.5 µM)
inactive: IRAK3 = 0 | JAK1 = 0 | LCK 0 | LIMK1 = 0 | LIMK2 = 0 | LMTK2 = 0 | LYN 0 | MAP2K1 = 0 | MAP2K2 = 0 | MAP4K2 = 0

Three compounds already listed, ordered by SMILES length, descending:
Cc1ncsc1-c1ccc(CNC(=O)[C@@H]2C[C@@H](O)CN2C(=O)[C@@H](NC(=O)COCCOc2ccc(-c3cc(Nc4ccc(OC(F)(F)F)cc4)ncn3)cc2)C(C)(C)C)cc1 (2.5 µM)
inactive: IRAK3 = 0 | JAK1 = 0 | LCK 0 | LIMK1 = 0 | LIMK2 = 0 | LMTK2 = 0 | LYN 0 | MAP2K1 = 0 | MAP2K2 = 0 | MAP4K2 = 0

CC(ONC(=O)c1cc(C(F)(F)F)cc(C(F)(F)F)c1)C(=O)Nc1ccc(Cl)cc1 (configuration not stated) (2.5 µM)
inactive: IRAK3 = 0 | JAK1 = 0 | LCK 0 | LIMK1 = 0 | LIMK2 = 0 | LMTK2 = 0 | LYN 0 | MAP2K1 = 0 | MAP2K2 = 0 | MAP4K2 = 0

O=C1C=CC2=C3c4cc(O)c(O)cc4CC3(O)COC2=C1O (configuration not stated) [Hematein] (10 µM)
inactive: IRAK3 = 0 | JAK1 = 0 | LCK 0 | LIMK1 = 0 | LIMK2 = 0 | LMTK2 = 0 | LYN 0 | MAP2K1 = 0 | MAP2K2 = 0 | MAP4K2 = 0

More compounds follow.

Cc1nn(CC(F)(F)F)cc1Nc1ncc(Br)c(NCc2ccc(S(N)(=O)=O)cc2)n1 (10 µM)
inactive: IRAK3 = 0 | JAK1 = 0 | LCK 0 | LIMK1 = 0 | LIMK2 = 0 | LMTK2 = 0 | LYN 0 | MAP2K1 = 0 | MAP2K2 = 0 | MAP4K2 = 0

Cc1cc(N2CCOCC2)ccc1Nc1nc(NC2CCCCC2)c2[nH]cnc2n1 (10 µM)
inactive: IRAK3 = 0 | JAK1 = 0 | LCK 0 | LIMK1 = 0 | LIMK2 = 0 | LMTK2 = 0 | LYN 0 | MAP2K1 = 0 | MAP2K2 = 0 | MAP4K2 = 0

C=CC(=O)Nc1cc(Nc2nccc(-c3cn(C)c4ccccc34)n2)c(OCC(F)(F)F)nc1N(C)CCNC [AST5902  (trimesylate)] (2.5 µM)
inactive: IRAK3 = 0 | JAK1 = 0 | LCK 0 | LIMK1 = 0 | LIMK2 = 0 | LMTK2 = 0 | LYN 0 | MAP2K1 = 0 | MAP2K2 = 0 | MAP4K2 = 0

From the supplement of paper PMC12823440, “Inhibitors supercharge kinase turnover through native proteolytic circuits” (Nature, 2025)
